## Percent effect of library compounds

Results are given as percent effect.
The record does not define 0% and 100%; most values in the screen are far below 50% and negative numbers occur (in some assays of this library far below -100).
The compounds are a random part of those screened.

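Assay of Toxoplasma gondii numbers, read through their beta-galactosidase reporter with a colour substrate. Compounds at 10 µM. Higher reads as fewer parasites (inferred from which compounds were picked for retests). About 67,000 compounds were tested under these conditions; 0.38% (about 260) showed 50% or more at least once.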

structure	effect
CN(Cc1n[nH]c(=O)n1CCc1ccccc1F)S(C)(=O)=O	-8.293%
CC(C)Cc1noc(CN2CCCN(C(=O)c3cccc(Cl)c3)CC2)n1	22.17%
O=C(c1ccc(-c2cc[nH]n2)cc1)N1CC[C@H](CO)[C@H](O)C1	10.9%
O=C(O)C(F)(F)F.[H][C@@]12CCN(c3ncc(F)cn3)C[C@]1([H])O[C@@H](C(=O)N1CCN(C)CC1)C2	3.953%
CCN(CC)C(=O)C1(NCc2nc(C)c(C)o2)CCCCC1	2.559%
CCc1c(O)nc2nc(N3CCOCC3)nn2c1C	10.28%
CCOCCN1CCN(Cc2cccc(C(=O)N(C)C)c2)CC1C (stereo unspecified)	-1.474%
COc1ccccc1CC(=O)N1CC[C@@]2(CCCO2)[C@@H](OC)C1	-13.28%
[H][C@@]12CN(Cc3ccccc3F)C[C@]1([H])OCCN2c1ncccn1	6.067%
CC(C)c1cnc(CN(C)C2CCN(CCc3ccccn3)C2)o1 (stereo unspecified)	3.717%
CC(C)(O)CCc1ccc(C(=O)N2CCN(CC3CCCC3)CC2)cc1	-6.274%
Cc1nc(-c2cccc(C#N)c2)nn1CC1(O)CCCCC1	-7.428%
CCCN(CC1CC1)C(=O)Cn1ccccc1=O	-6.616%
Cc1nocc1C(=O)N1CCc2c(CN(C)C)nn(C)c2C1	-11.89%
Cc1ccc2c(n1)N(CCN(C)C)CCN(C(=O)N1CCOCC1)C2	4.452%
O=C(O)C(F)(F)F.[H][C@@]12CCCO[C@]1([H])[C@H](n1cccn1)CN2Cc1cccs1	-15.9%
COc1ccc(C2CCCN2C(=O)c2ccc(=O)n(C)c2)cc1OC (stereo unspecified)	-2.021%
CN(C)C(CNC(=O)c1ccnc(-n2cncn2)c1)c1ccccc1 (stereo unspecified)	-3.515%
Cc1nc(CC(=O)N2CCC(c3nn(C)c4ncccc34)CC2)cs1.Cl	7.151%
CN(Cc1ccc(N2CCOCC2)cc1)Cc1noc(C(C)(C)C)n1	16.45%
O=C(CCc1cscn1)N1CCCC(c2ccn[nH]2)C1 (stereo unspecified)	-2.541%
CCn1nc2nc(SCC(=O)O)cc(C(F)F)c2c1C	-8.838%
COc1ccc(CNC(=O)NCC(O)(c2cccs2)C2CC2)cc1 (stereo unspecified)	1.416%
CC(C)c1cc(NC(CO)CO)n2nccc2n1	5.391%
CN(Cc1ccco1)C(=O)NCc1nnc2n1CCC2	-3.54%
CN1CCOC(CN(C(=O)CCc2cnn(C)c2)c2nccs2)C1 (stereo unspecified)	-21.05%
CN(C)C(C(=O)N1CCC(c2ncc[nH]2)CC1)c1ccc2c(c1)OCO2 (stereo unspecified)	7.386%
Cn1ccnc1CN1CCC2(CC(=O)N(c3ccsc3)C2)C1.O=C(O)C(F)(F)F (stereo unspecified)	11.79%
COc1ccc(N2CCN(C(=O)C3CN(C)C(=O)N3)CC2(C)C)cc1 (stereo unspecified)	-2.747%
O=C(O)C(F)(F)F.[H][C@]12C[C@@H](CN(C)C)N(CC3CC3)[C@@]1([H])CCN(C(=O)c1ccoc1)C2	30.52%
c1cnnc(N2CCCC(NCc3cccc4c3OCCO4)C2)c1 (stereo unspecified)	22.26%
O=C(c1c[nH]c(=O)[nH]c1=O)N1CCCC(c2nccn2CC2CCC2)C1 (stereo unspecified)	-3.205%
CCC[C@H]1CN(Cc2ccc(N(C)C)nc2)C[C@@H]1NS(=O)(=O)CC	2.095%
Cc1ccc(O)c(C(=O)N2CCC3(CCCNC3)C2)c1 (stereo unspecified)	21.26%
CN(Cc1nnc2n1CCC2)C(=O)c1ccc2c(c1)OCCO2	27.75%
Cc1nccn1CCCn1cncc1-c1ccc2c(c1)CC(C)N2C.Cl (stereo unspecified)	5.66%
CCC(C)N1CCC2(CC1)CN(c1cncnc1)C(=O)CO2.O=C(O)C(F)(F)F (stereo unspecified)	8.629%
COc1ccc(OC)c(-n2nnnc2SCC2CCCCO2)c1 (stereo unspecified)	1.478%
CN(CC1(O)CCCN(CCC2CCCCC2)C1=O)C1CCOCC1 (stereo unspecified)	-4.736%
Cn1ncc(C(=O)N2CCN(CCS(C)(=O)=O)CC2)c1Cl	67.81%
CC(C)NC(=O)Nc1ccc(CNCc2ccc(OC(F)F)cc2)cc1	-1.77%
Cc1cnn(CCNCC(=O)NCC2(c3ccccc3)CCC2)c1	11.16%
Cc1nccn1Cc1nnc(C2CCCN(c3ncccc3F)C2)n1C (stereo unspecified)	-5.046%
COCCN(Cc1cnn(C)c1)C(=O)C1CCN(C2CCCCC2)CC1	-12.4%
O=C(NCc1cccnc1)NC1CCCN(c2ncccn2)C1 (stereo unspecified)	-0.6734%
Cc1cnc(N2CCC3(CCN(CC4CC4)C3=O)CC2)nc1	4.541%
Cl.O=C(NCC(F)(F)F)C1=NOC2(CCCNC2)C1 (stereo unspecified)	2.995%
CN(C)CC(=O)N1CCc2ncnc(-c3ccsc3)c2CC1	11.53%
Cc1cc(CNCCNS(C)(=O)=O)sc1Br	-2.009%
Cc1nocc1C(=O)N1CCOC2(COCCN(CC3CC3)C2)C1 (stereo unspecified)	-1.652%
CNc1cc(N2CCC(O)(CNC(=O)c3ccc(C)nc3)C2)ncn1 (stereo unspecified)	-0.3648%
O=C(O)C(F)(F)F.[H][C@@]12COC[C@]1(CNC(=O)CC1CC1)CN(c1ncc(F)cn1)C2	-9.296%
COc1ccccc1C(=O)NC(c1ccccn1)[C@H]1CC[C@H](CN)CC1 (stereo partly specified)	-2.384%
Cc1ccc(C(=O)NCCS(=O)(=O)Cc2ccccc2)c(C)c1	-57%
CC(=O)Nc1cccc(CN2CCCC2C(=O)Nc2nccs2)c1 (stereo unspecified)	1.25%
COc1ccc(-c2nc3c([nH]2)CCNC3C(=O)O)c2ccc(C)nc12 (stereo unspecified)	8.439%
O=S(=O)(NCCc1cn2ccccc2n1)N1CCOCC1	9.454%
O=C(O)C(F)(F)F.[H][C@@]12C[C@@H](OCC)CN1CCN(S(=O)(=O)c1cccs1)C2	11.9%
Cc1nn(C)c(C)c1C1CCCN1Cc1nc(-c2ccccn2)no1 (stereo unspecified)	-3.388%
[H][C@@]12CS(=O)(=O)C[C@]1([H])N(Cc1ccc(CCC)o1)CCN2c1ncccn1	4.401%
Cc1ccc(C#N)cc1NC(=O)NC1CCCN(c2ncccn2)C1 (stereo unspecified)	-1.78%
Cc1cccc(C2(C(=O)NCC(C)CN3CCCC3=O)CC2)c1 (stereo unspecified)	0.1763%
COC(=O)CCCC(=O)N1CCC(CO)(CCc2ccccc2)CC1	19.85%
CCn1ccc(-c2nnc(SCC(=O)NCC(C)C)n2CC)n1	-12.16%
CC(Cn1cccn1)NCc1csc(-c2ccccc2)n1 (stereo unspecified)	2.294%
O=C(O)C(F)(F)F.O=C(c1ccc(F)cc1)N1CCC2(CC1)CC(N1CCOCC1)C2	-21.28%
COc1cccc(NC(=O)N2CCC(O)(C(F)(F)F)C2)c1 (stereo unspecified)	-0.1181%
Fc1cccc(C(NCc2ncc[nH]2)c2ccccc2)c1 (stereo unspecified)	1.638%
CN1C[C@H](O)[C@]2(CCN(C(=O)COc3ccccc3)C2)S1(=O)=O	-26.51%
Cc1occc1C(=O)N1CCc2ncnc(C3CCOC3)c2CC1 (stereo unspecified)	4.503%
Cc1cnn(CCNCc2nc(-c3ccccc3Cl)no2)c1	-3.811%

The first 4 entries again:

- CN(Cc1n[nH]c(=O)n1CCc1ccccc1F)S(C)(=O)=O : -8.293%
- CC(C)Cc1noc(CN2CCCN(C(=O)c3cccc(Cl)c3)CC2)n1 : 22.17%
- O=C(c1ccc(-c2cc[nH]n2)cc1)N1CC[C@H](CO)[C@H](O)C1 : 10.9%
- O=C(O)C(F)(F)F.[H][C@@]12CCN(c3ncc(F)cn3)C[C@]1([H])O[C@@H](C(=O)N1CCN(C)CC1)C2 : 3.953%

From ChEMBL document CHEMBL3988442, “University of Dundee, Small-Polar-MMV Screening Library” (2021).